Test results: paper PMC5231280

What was measured:
Assay in all cases: two-hybrid; GAL4-based, pGBKT7 and pGADT7-Rec fusions co-transformed into yeast AH109; growth on SD -Leu -Trp -His -Ade with X-gal / X-alpha-GAL
[1] = molecular target: TeTM6-2 protein (Tagetes erecta)
[2] = molecular target: TeTM6-1 protein (Tagetes erecta)
[3] = molecular target: TeAP3-2 protein (Tagetes erecta)
[4] = molecular target: TeAP3-1 protein (Tagetes erecta)

Substance | binding [1] | binding [2] | binding [3] | binding [4]
TeAP3-1 protein (from UniProt A0A1B2YKU0) | no binding | no binding | no binding | 
TeAP3-2 protein (from UniProt A0A1B2YKT8) | no binding | no binding |  | 
TePI protein (from UniProt A0A1B2YKT1) | binds | binds | binds | binds
TeTM6-1 protein (from UniProt A0A1B2YKT5) | no binding |  |  | 

These are yes or no findings as the source states them, for the method shown. Binding can be weak; no strength is given.
